Data as given in PubChem BioAssay AID1259308 (NCATS, 2017)
In all, the deposit lists about 59,000 reagents; this is a part drawn at random. Over the whole deposit, about 1,510 (2.6%) were called active. 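Calls use total luciferase alone and ignore viability, so some active siRNAs may act by altering cell number.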 Entries without a mark were called inactive. The numbers tell different reagents against one gene apart. Further read-outs or replicates are left out here.

Aim: 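Candidate targets for better recombinant protein yield in mammalian cells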 (primary screen)
Cell system: human HEK293 embryonic kidney cells stably expressing firefly luciferase (HEK-CMV-Luc2-Hygro)
Knock-down reagent: single siRNA against human genes, 0.8 pmol siRNA per well
Timing: 72 h
Measurement: 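Luciferase light (ONE-Glo) measured on one replicate plate set and viability (CellTiter-Glo) on the other, scaled to a negative control siRNA, with robust z-scores and luciferase per cell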
Reading the numbers: total luciferase, z-score: higher = more reporter protein produced
Call rule: 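Active when the median/MAD z-score for overall luciferase is greater than 3; a gene was taken forward for validation with new siRNAs if at least two of its three siRNAs passed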
Meaning of the calls: active = raised luciferase; inactive = no rise

total luciferase, z-score, by target and reagent
ITPRIPL2: #1 4.45 (active); #2 -0.377; #3 0.808
SLC4A7: #1 0.831; #2 -0.476; #3 0.853
RPGR: #1 0.381; #2 0.696; #3 -0.557
FAM43B: #1 -0.28; #2 -2.37; #3 0.293
SLC19A4P: #1 0.632; #2 0.465; #3 -0.865
OR6K6: #1 1.16; #2 -0.629; #3 -0.959
IL36A: #1 -0.464; #2 -0.594; #3 -2.42
TBP: #1 1.25; #2 2.81; #3 1.93

Sorted by “total luciferase, z-score” (highest first): some entries from above.
target	reagent no.	total luciferase, z-score
SLC4A7	3	0.853
RPGR	2	0.696
RPGR	1	0.381
RPGR	3	-0.557
